Measured values taken from patent US8476197B2, “Aminopropenoates as fungicides” (priority 2009, dated 2013).
Some results were stated once for a whole list of compounds, not compound by compound.

System: Phytophthora infestans
Format: in vivo
Conditions: preventive, tomato, 500 ppm of active ingredient, evaluated 7 days after inoculation

Compound	efficacy [%]
CCOC(=O)C(C#N)=C(NC(C)C=NOC)c1cccnc1Cl (mixture of isomers) [Compound 1322]	≥ 70
CCOC(=O)C(C#N)=C(NC(C)c1ccc(Cl)cc1)c1cn(C)nc1C(F)F (stereo not drawn) [Compound 348]	≥ 70
CCOC(=O)C(C#N)=C(NC(C)(C)C(=O)OC)c1cn(C)nc1C(F)F [Compound 696]	≥ 70
COC(=O)C(C#N)=C(NC(C)c1ccc(Cl)cc1)c1cccnc1Cl (stereo not drawn) [Compound 332]	≥ 70
CCOC(=O)C(C#N)=C(NC(C)C(=O)CC)c1cn(C)nc1C(F)F (racemic) [Compound 1240]	≥ 70
CCOC(=O)C(C#N)=C(NC(C)COc1ccccc1Cl)c1cn(C)nc1C(F)F (stereo not drawn) [Compound 741]	≥ 70
CCOC(=O)C(C#N)=C(NC(C)Cc1nccs1)c1cccnc1Cl (mixture of isomers) [Compound 294]	≥ 70
C#CCOC(=O)C(C#N)=C(NC(C)c1nccs1)c1cccnc1Cl (racemic) [Compound 267]	≥ 70
CCOC(=O)C(C#N)=C(NCc1ncc(C)s1)c1sc(C)nc1C(F)(F)F [Compound 219]	≥ 70
CCNC(=O)C(C#N)=C(NCC(C)c1nccs1)c1cccnc1Cl (stereo not drawn) [Compound 1120]	≥ 70
CCOC(=O)C(C#N)=C(NC(C)c1cccc(OC)c1)c1cn(C)nc1C(F)F (stereo not drawn) [Compound 1225]	≥ 70
COC(=O)C(C#N)=C(NC(C)c1nccs1)c1cn(C)nc1C(F)F (racemic) [Compound 61]	≥ 70
CCOC(=O)C(C#N)=C(NC(C)c1cccs1)c1sc(C)nc1C(F)(F)F (stereo not drawn) [Compound 212]	≥ 70
CCOC(=O)C(C#N)=C(NC(C)C1CCC1)c1cccnc1Cl (stereo not drawn) [Compound 1191]	≥ 70
CCOC(=O)C(C#N)=C(NC(c1ccccc1)C(F)(F)F)c1cn(C)nc1C(F)F (stereo not drawn) [Compound 1224]	≥ 70
CCOC(=O)C(C#N)=C(NC1CC1C(F)(F)F)c1cn(C)nc1C(F)F (stereo not drawn) [Compound 1147]	≥ 70
C#CC(C)NC(=C(C#N)C(=O)OCC)c1cn(C)nc1C(F)F (stereo not drawn) [Compound 1049]	≥ 70
C#CCNC(=C(C#N)C(=O)OCC)c1cn(C)nc1C(F)F [Compound 1128]	≥ 70
CCOC1CCCC1NC(=C(C#N)C(=O)OC)c1cccnc1Cl (stereo not drawn) [Compound 1059]	≥ 70
CC(C)C(C)NC(=C(C#N)C(=O)N1CCSC1)c1cccnc1Cl (stereo not drawn) [Compound 1618]	≥ 70

Compound	efficacy [%]
CCOC(=O)C(C#N)=C(NC1CC1(C)C)c1cn(C)nc1C(F)F (stereo not drawn) [Compound 1148]	≥ 70
CCOC(=O)C(C#N)=C(NC(c1ccc(Cl)cc1)C(F)(F)F)c1cn(C)nc1C(F)F (stereo not drawn) [Compound 1222]	≥ 70
C=CC(COCc1ccccc1)NC(=C(C#N)C(=O)OCC)c1cccnc1Cl (stereo not drawn) [Compound 1197]	≥ 70
CCOC(=O)C(C#N)=C(NCc1ccccc1SC)c1cn(C)nc1C(F)F [Compound 476]	≥ 70
CC#CC(C)NC(=C(C#N)C(=O)OC)c1cccnc1Cl (stereo not drawn) [Compound 1051]	≥ 70
CCOC(=O)C(C#N)=C(NCc1ncccc1Cl)c1cccnc1Cl [Compound 1413]	≥ 70
CCOC(=O)C(C#N)=C(NC(C)C(C)C)c1scnc1Cl (stereo not drawn) [Compound 1468]	≥ 70
CCOC(=O)C(C#N)=C(NC(c1cc2ccccc2s1)C(F)(F)F)c1cn(C)nc1C(F)F (racemic) [Compound 48]	≥ 70
COC(=O)C(C#N)=C(N[C@@H](C)C1CCCCC1)c1cccnc1Cl [Compound 870]	≥ 70
CC(C)C(C)NC(=C(C#N)C(=O)OC1CCC1)c1cccnc1Cl (stereo not drawn) [Compound 1284]	≥ 70
CCOC(=O)C(C#N)=C(NC(C)c1ccccn1)c1ccncc1Cl (racemic) [Compound 260]	≥ 70
CNC(=O)C(C#N)=C(NC(C)C1CC1)c1cccnc1Cl (racemic) [Compound 908]	≥ 70
CC(NC(=C(C#N)C(=O)NC1CC1)c1cn(C)nc1C(F)F)c1nccs1 (racemic) [Compound 1279]	≥ 70
CCOC(=O)C(C#N)=C(NC(C)CC(C)C)c1cccnc1Cl (racemic) [Compound 778]	≥ 70
CCOC(=O)C(C#N)=C(NC(C)C(C)C)c1cn(C)nc1C (stereo not drawn) [Compound 1203]	≥ 70
CCOC(=O)C(C#N)=C(NC(C)C1CC1)c1cn(C)nc1C(F)(F)F (racemic) [Compound 894]	≥ 70
CCNC(=O)C(C#N)=C(NC(C)C1CC1)c1cccnc1Cl (stereo not drawn) [Compound 1114]	≥ 70
CCNC(=O)C(C#N)=C(NC(C)c1ccncn1)c1cccnc1Cl (stereo not drawn) [Compound 1118]	≥ 70
CCOC(=O)C(C#N)=C(NC(C)c1ccccc1F)c1cccnc1Cl (stereo not drawn) [Compound 1532]	≥ 70
CCOC(=O)C(C#N)=C(NC(C)c1nc(C(=O)OCC)cs1)c1cccnc1Cl (stereo not drawn) [Compound 241]	≥ 70

Compound	efficacy [%]
CCOC(=O)C(C#N)=C(NC(C)C1CCCC1)c1cccnc1Cl (stereo not drawn) [Compound 1606]	≥ 70
CCOC(=O)C(C#N)=C(NC(C)CC)c1cccnc1C(F)F (racemic) [Compound 842]	≥ 70
C#CC(C)NC(=C(C#N)C(=O)OCC)c1sc(C)nc1C(F)(F)F (stereo not drawn) [Compound 1050]	≥ 70
CCOC(=O)C(C#N)=C(NC(C)c1nc(C)c(C)s1)c1conc1C (stereo not drawn) [Compound 74]	≥ 70
CCOC(=O)C(C#N)=C(Nc1ccccc1Cl)c1cccnc1Cl [Compound 1263]	≥ 70
CCOC(=O)C(C#N)=C(NC(C)c1cscn1)c1cccnc1Cl (racemic) [Compound 275]	≥ 70
CCOC(=O)C(C#N)=C(NC(C)C(C)C)c1ccncc1Br (stereo not drawn) [Compound 996]	≥ 70
CCOC(=O)C(C#N)=C(NC(C)c1cccc(Cl)c1)c1cn(C)nc1C(F)F (racemic) [Compound 554]	≥ 70
CCOC(=O)C(C#N)=C(NC(C)CF)c1cn(C)nc1C(F)(F)F (stereo not drawn) [Compound 751]	≥ 70
CCOC(=O)C(C#N)=C(NCCOC)c1cccnc1Cl [Compound 1183]	≥ 70
C=Cc1ncccc1C(NC(C)C(C)C)=C(C#N)C(=O)OCC (stereo not drawn) [Compound 976]	≥ 70
CCOC(=O)C(C#N)=C(NC(C)c1nccs1)c1ccnc(SC)c1Cl (stereo not drawn) [Compound 1331]	≥ 70
CCOC(=O)C(C#N)=C(NCC(N)=O)c1cn(C)nc1C(F)F [Compound 1255]	≥ 70
CCOC(=O)C(C#N)=C(NC(C)c1ccccn1)c1ccnc(C)c1Cl (racemic) [Compound 1243]	≥ 70
CCOC(=O)C(C#N)=C(NC(C(=O)OC)c1ccccc1)c1cccnc1Cl (stereo not drawn) [Compound 1195]	≥ 70
CCON=C(C)C(C)NC(=C(C#N)C(=O)OCC)c1cccnc1Cl (stereo not drawn) [Compound 1636]	≥ 70
CCOC(=O)C(C#N)=C(NC(C)c1ccccn1)c1c(C(F)F)nn(C)c1F (stereo not drawn) [Compound 316]	≥ 70
CCOC(=O)C(C#N)=C(NC1C2CCCCC21)c1cn(C)nc1C(F)F (stereo not drawn) [Compound 1131]	≥ 70
CCOC(=O)C(C#N)=C(NC(C)(C)C#CCOC)c1cn(C)nc1C(F)F [Compound 1101]	≥ 70
CCOC(=O)C(C#N)=C(NC(C)C(=O)NC)c1cc(Cl)ncc1Cl (stereo not drawn) [Compound 720]	≥ 70
